Assay results taken from PubChem BioAssay AID1439 (NMMLSC, 2008).
Hit rate of the full screen: of about 220,000 compounds, about 770 (0.35%) were called active. The shares of active, inactive and inconclusive entries below differ from those in the screen. No stated cut-off is given here; in the data, active means binding response below about 49% or above about 150%; inconclusive means no clear call, values can overlap the other calls; inactive means in between.

Chains of the proteins cited; added tags and fusions are not shown.
UniProt P09471, whole entry, looked up: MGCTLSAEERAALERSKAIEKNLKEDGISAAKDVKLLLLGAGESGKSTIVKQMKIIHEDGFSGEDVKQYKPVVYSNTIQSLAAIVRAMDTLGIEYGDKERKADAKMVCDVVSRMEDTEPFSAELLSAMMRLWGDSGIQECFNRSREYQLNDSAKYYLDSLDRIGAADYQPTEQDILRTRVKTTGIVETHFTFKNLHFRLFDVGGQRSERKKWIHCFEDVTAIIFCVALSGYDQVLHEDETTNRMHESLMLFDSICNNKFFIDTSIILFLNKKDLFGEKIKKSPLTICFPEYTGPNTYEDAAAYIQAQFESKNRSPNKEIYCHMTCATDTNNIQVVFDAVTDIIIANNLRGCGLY

target: Guanine nucleotide-binding protein G(o) subunit alpha (Homo sapiens) (UniProt P09471); test: RGS7-Galphao binding modulators, primary screen, biochemical, multiplexed bead flow cytometry (AID 1439); conditions: at 10 µM, actives lie on both sides;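 further: fluorescent Galphao held in activated GDP-AlF4 state binding bead-coupled RGS7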

SMILES	binding response (% of control)
O=C(Nc1ccccc1Cl)C1CC(=O)n2c(nc3ccccc32)N1 (stereo unspecified)	inactive: 91.8%
CCOC(=O)C1=C(CS(=O)(=O)c2ccccc2)NC(=O)NC1c1ccc(OC)c(OC)c1 (stereo unspecified)	inconclusive: 78.1%
Cn1nccc1NC(=O)NC(=O)c1c(Cl)cccc1Cl	inconclusive: 81.5%
CCCCCCn1nc(C(=O)OCC(=O)NC2CCS(=O)(=O)C2)c2ccccc2c1=O (stereo unspecified)	inconclusive: 82.9%
Cc1c(C(C)(C(=O)O)c2c(C)n(C)c3ccccc23)c2ccccc2n1C	inconclusive: 115%
Cc1ccc(/C=C/C(=O)O)cc1S(=O)(=O)Nc1ccccc1C(=O)O	inconclusive: 95.6%
COc1ccc(C(=O)NCc2nnc(SCC(=O)N3CCC(C)CC3)o2)cc1	inactive: 103%
O=C(Nc1ccc(Cl)c(S(=O)(=O)N2CCOCC2)c1)c1ccc(OCC2CCCO2)cc1 (stereo unspecified)	inconclusive: 86.6%
COC(=O)c1ccccc1NS(=O)(=O)c1ccc(F)cc1	inactive: 101%
O=C(COC(=O)c1cc[n+]([O-])cc1)NCc1ccccc1Cl	inactive: 96.1%
O=C(COC(=O)c1ccccc1Oc1ccccc1)NCc1ccco1	inactive: 97.2%
CNC(=O)COC(=O)c1cc2c(s1)CCCC2	inconclusive: 100%
Cc1cc([N+](=O)[O-])nn1CC(=O)N/N=C/c1ccccc1Br	inconclusive: 108%
CCCOc1ncnc2c1sc1nc3c(cc12)COC(C)(C)C3	inactive: 98.2%
CCn1cc(-c2ccnc3cc(C(=O)O)nn23)c(C)n1	inconclusive: 94.4%
Cc1ccccc1NCC(=O)N/N=C\C=C\c1cccc([N+](=O)[O-])c1	inactive: 94.9%
CCCNS(=O)(=O)c1ccc(OCC(=O)N(C)Cc2ccccc2)cc1	inconclusive: 125%
O=C(NN1CC(=O)N(c2cc(Cl)cc(Cl)c2)CC1=O)c1sccc1Cl	inconclusive: 102%
CCN(CC)S(=O)(=O)c1cc(NC(=O)Cn2ncc(Cl)c(Cl)c2=O)ccc1C	inconclusive: 267%
COc1ccc(OCC(=O)Nc2ccccc2C(=O)NC(C)C)cc1	inconclusive: 97.5%
C=C(C)C1(O)OC(=O)C=C1OC (stereo unspecified)	inactive: 101%
CC(Nc1nc(-c2ccc3c(c2)NC(=O)CO3)cs1)c1ccccc1 (stereo unspecified)	inconclusive: 96.3%
Cc1oc2c(O)c(O)ccc2c(=O)c1-c1ccccc1	inconclusive: 79.1%

SMILES	binding response (% of control)
O=C1NC(c2ccc(Cl)c([N+](=O)[O-])c2)Nc2ccccc21 (stereo unspecified)	inconclusive: 101%
CN(C)CCC(O)c1ccccc1 (stereo unspecified)	inconclusive: 126%
COC(=O)c1sc(SC)c(S(=O)(=O)C(C)C)c1N/N=C(\C#N)C(=O)c1ccccc1	inconclusive: 104%
Cc1cc(N)n(-c2ccccn2)n1	inconclusive: 53%
O=C(O)c1ccc(NCc2nc3ccccc3n2Cc2ccccc2F)cc1	inconclusive: 142%
CCn1c(=O)cc(N2CCN(C(=O)c3ccco3)CC2)[nH]c1=O	inconclusive: 151%
COC(=O)N/N=C/c1ccccc1OCCOc1ccc(OC)cc1	inconclusive: 68.3%
O=[N+]([O-])c1ccc(N2CCCC2)nc1N1CCCC1	inconclusive: 87.5%
CCc1ccccc1NC(=O)Nc1cc(F)ccc1F	inconclusive: 95.1%
c1ccc(-c2nccnc2-c2ccccc2)cc1	inconclusive: 95.4%
O=C1[C@@H]2[C@H]3CC[C@H](C3)[C@@H]2C(=O)N1O	inconclusive: 112%
CCCNC(=O)[C@H](Cc1c[nH]c2ccccc12)NC(=O)c1ccccc1Cl	inactive: 98.5%
O=C(N=Nc1c(O)[nH]c2ccc([N+](=O)[O-])cc12)c1ccccc1[N+](=O)[O-]	inconclusive: 132%
O=C(O)COc1ccccc1/C=N/NC(=O)COc1ccc(-c2ccccc2)cc1	inconclusive: 76.9%
CC1CCCN(CCOc2ccc3ccccc3c2Br)C1 (stereo unspecified)	inactive: 93.2%
FC(F)(F)c1cc(Cl)c2nnc(-c3cccnc3)n2c1	inactive: 96.2%
COc1ccc(C(C#N)=C2C=CC(=NO)C=C2)cc1	inconclusive: 103%
CN(c1ccc(OCC(=O)NC2=NCCS2)cc1)S(=O)(=O)c1ccc(F)cc1	inconclusive: 103%
O=C(O)CCC(=O)Nc1ccccc1C(=O)NCCc1ccccc1	inactive: 94.6%
Cc1cccc(C(=O)NCC(=O)OCC(=O)c2cc(C)n(CC3CCCO3)c2C)c1 (stereo unspecified)	inconclusive: 75.5%
O=C(Nc1cc([N+](=O)[O-])ccc1N1CCCC1)c1ccccc1	inconclusive: 131%
Fc1cc(F)c(C2SCCN2C(=S)Nc2cccc(C(F)(F)F)c2)c(F)c1 (stereo unspecified)	inconclusive: 94.7%
Cc1nc(Cl)nc(N(C)c2ccccc2)c1[N+](=O)[O-]	inconclusive: 44%

SMILES	binding response (% of control)
CCOC(=O)c1sc(NC(=O)C(CC)Sc2nnc3c4ccccc4n(CC)c3n2)nc1C (stereo unspecified)	inconclusive: 643%
O=C(NCCc1c[nH]c2ccccc12)C(=O)NCC1CCCO1 (stereo unspecified)	inconclusive: 81.3%
CCCNC(=O)Cn1c(=O)n(C)c2ccccc21	inconclusive: 59%
Cc1cccc(Cn2c(=O)n(-c3ccc(CC(=O)NCc4ccco4)cc3)c(=O)c3sccc32)c1	inactive: 100%
O=C(COc1ncnc2sccc12)N1CCN(C(=O)c2ccco2)CC1	inactive: 102%
COc1ccc(C=O)cc1CSc1ccccn1	inconclusive: 74.5%
Cc1nn(-c2ccccn2)c2c1C(=O)CC(C)(C)C2Br (stereo unspecified)	inconclusive: 86.2%
Cc1onc(-c2ccccc2)c1C(=O)NNC(=S)NC(=O)c1ccc2c(c1)OCO2	inconclusive: 172%
COc1cccc(C(=O)NC2CC3CCCC(C2)N3S(=O)(=O)c2ccccc2)c1 (stereo unspecified)	inconclusive: 97.1%
COc1ccc(N2CCN(C(CNC(=O)OCc3ccccc3)c3ccco3)CC2)cc1 (stereo unspecified)	inactive: 106%
Cc1[nH]c(N=Nc2ccccc2)nc1N=Nc1ccccc1	inconclusive: 113%
CCOCC(=O)N1CCN(c2ccc(F)cc2)CC1	inactive: 107%
CN(C)c1ccc(/C=N\NC(=O)c2cccc3cc[nH]c23)cc1	inconclusive: 53.9%
O=C1NC(=Nc2cccc(O)c2)S/C1=C\c1cccnc1	inconclusive: 105%
CC1=C(C(N)=O)C(c2cccs2)NC(=O)N1 (stereo unspecified)	inconclusive: 96.7%
Cc1ccc(S(=O)(=O)N2CCN(C(=O)COc3ccc(C)nc3[N+](=O)[O-])CC2)c(C)c1	inconclusive: 109%
c1ccc2c(-c3cn4ccccc4n3)c[nH]c2c1	inactive: 123%
COc1ccc(-c2onc(C)c2-c2cscn2)c(O)c1	inconclusive: 83.6%
COc1cc2c(cc1OC)C(/C=C/c1ccco1)=NCC2	inconclusive: 113%
COc1ccc(N2C(=O)CC(c3ccccc3)C2=O)cc1 (stereo unspecified)	inconclusive: 85.8%
S=C(NCc1ccccc1)N1CCCCC1	inactive: 89.4%
COC(=O)c1sccc1NC(=O)C1CC1	inconclusive: 103%
Cn1c(-c2ccccc2)n[nH]c1=S	inconclusive: 138%

SMILES	binding response (% of control)
CC1(C)Cc2cccc(OCC(=O)OCC(=O)Nc3cccc(S(N)(=O)=O)c3)c2O1	inconclusive: 95.4%
CCOC(=O)C1CCCN(c2c(C(=O)c3ccccc3)cnc3ccc(OC)cc23)C1 (stereo unspecified)	inconclusive: 101%
COc1cccc(OC)c1C(=O)NC(=S)Nc1ccc2oc(=O)ccc2c1	inactive: 102%
COc1ccccc1NC(=O)C(=O)N(c1cccnc1)C(C(=O)NC(C)(C)C)c1ccccc1F (stereo unspecified)	inactive: 103%
Cc1cc(C)c(/C([O-])=C(/C(=S)Nc2ccc(SC(F)F)cc2)[n+]2ccccc2)cc1C	inconclusive: 97.7%
Cc1cc(C)nc(N2CCCC(C(=O)NC(C)C)C2)n1 (stereo unspecified)	inactive: 98.7%
CCCCNC(=O)CCCCn1c(=S)[nH]c2c([nH]c3ccc(OC)cc32)c1=O	inconclusive: 92.9%
CCCCN1C(N)=NC[C@H]1Cc1ccc(O)cc1	inconclusive: 95.3%
CSc1ccccc1NC(=O)CN1CC(C)OC(C)C1 (stereo unspecified)	inconclusive: 92.3%
O=C(O)c1ccc(Sc2nnc3ccccn23)c([N+](=O)[O-])c1	inconclusive: 252%
Cc1cc(=O)oc2cc(OCC(=O)N3CCOCC3)ccc12	inactive: 89.6%
CC(C)(C)OC(=O)NCCCC[C@H](NC(=O)c1nc[nH]c1C(=O)N1CCN(c2ccccc2)CC1)C(=O)OC(C)(C)C	inconclusive: 121%
COc1cc(CNCCN2CCOCC2)ccc1OCC(=O)NC(C)(C)C	inconclusive: 107%
CCCCCCc1cc2cc(-c3nnc(-c4cc(OC)c(OC)c(OC)c4)o3)c(=O)oc2cc1O	inactive: 99%
N=c1c2c(-c3ccccc3)c(-c3ccccc3)n(Cc3ccco3)c2ncn1CCCO	inconclusive: -704%
O=c1oc2ccccc2c2oc3cc(O)c(O)cc3c12	inconclusive: 113%
c1ccc(CNc2nc(N3CCN(Cc4ccccc4)CC3)nc3ccccc23)cc1	inconclusive: 113%
Cc1cc(=O)n2[nH]c(-c3sccc3-n3c(C)ccc3C)cc2n1	inconclusive: -34.3%
CCOC(=O)C1(Cc2cccc(F)c2)CCN(Cc2c(C)nn(CC)c2C)CC1	inconclusive: 116%
C/C=C(/C)C(=O)Nc1cccc(C2=NOC3(C2)C[C@@H](C(N)=O)N(C(=O)C2(C)CC2)C3)c1 (stereo partly specified)	inconclusive: 132%
COc1ccccc1NC(=O)/C(=C\c1cccs1)NC(=O)c1ccco1	inconclusive: 132%
O=C(CSc1nnnn1-c1ccccc1)Nc1ccc(N2CCOCC2)cc1	inconclusive: 92.2%

As entered above:
`C=C(C)C1(O)OC(=O)C=C1OC` (stereo unspecified) | binding response (% of control): inactive: 101%
`CC1=C(C(N)=O)C(c2cccs2)NC(=O)N1` (stereo unspecified) | binding response (% of control): inconclusive: 96.7%
`Cc1cccc(C(=O)NCC(=O)OCC(=O)c2cc(C)n(CC3CCCO3)c2C)c1` (stereo unspecified) | binding response (% of control): inconclusive: 75.5%
`CCc1ccccc1NC(=O)Nc1cc(F)ccc1F` | binding response (% of control): inconclusive: 95.1%
`O=C(Nc1ccccc1Cl)C1CC(=O)n2c(nc3ccccc32)N1` (stereo unspecified) | binding response (% of control): inactive: 91.8%
`O=C(Nc1ccc(Cl)c(S(=O)(=O)N2CCOCC2)c1)c1ccc(OCC2CCCO2)cc1` (stereo unspecified) | binding response (% of control): inconclusive: 86.6%
